Measurements from PubChem BioAssay AID504834 (National Center for Advancing Translational Sciences (NCATS), 2011).
Screen size: about 320,000 compounds; about 22,000 (6.9%) were called active. This list was built around the results that the source calls inconclusive (neither active nor inactive); the mix of calls is not that of the screen. Calls follow the shape of the dose curve; as a rule, active = well fitted inhibition curve with a large enough effect; inconclusive = small, poorly fitted or top-dose-only effect, or another doubt; inactive = no such curve, though single readings can be large or run the other way. Potencies beside an inconclusive call are fits to weak or partial responses and may not hold up.

Test: Primary qHTS for delayed death inhibitors of the malarial parasite plastid, 96 hour incubation
Details: P. falciparum luciferase reporter growth; series mostly up to 28.7 µM
Method in brief: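 Parasite growth measured via integrated firefly luciferase reporter in P. falciparum. Infected erythrocytes at 2% hematocrit, 0.05% parasitemia final were treated 96 hours at 37 C under 5% CO2, and luminescence was read.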
Potency is read from the fitted curve at half-maximal effect.

For `COc1ccc(C(=O)Nc2ccc3c(c2)C(=O)N(C)C3=O)cc1OC`, which Potency is on record?
The Potency was “inactive”.

With `O=C(Oc1ccc(Nc2ncnc3ccccc23)cc1)c1cccnc1` as the compound, how does the Potency read?
The Potency was active: 11.7 µM.

With `COc1ccc(CCNC(=O)c2c(C)nc3ccccn23)cc1OC` as the compound, how does the Potency read?
Its Potency is “inactive”.

For `CN1CCN(C(=O)CC2C(=O)NCCN2Cc2ccc(-c3ccccc3)cc2)CC1` (stereo not drawn), which Potency is on record?
The Potency was inconclusive: 18.5 µM [inhibitor, single point].

With `COc1ccc(N2CCN(C(=O)COC(=O)c3ccc(OC(F)F)cc3)CC2)cc1` as the compound, how does the Potency read?
Its Potency is inconclusive: 6.57 µM [inhibitor, partial curve, poor fit].

With `Cc1ccc(S(=O)(=O)NCc2ccc(C(=O)NCCCN3CCN(C)CC3)cc2)cc1` as the compound, how does the Potency read?
The Potency was inconclusive: 18.5 µM [inhibitor, single point].

With `N#Cc1cc([N+](=O)[O-])ccc1NC(=O)CSc1n[nH]c(=O)n1C1CC1` as the compound, how does the Potency read?
The Potency was “inactive”.

For `Cc1cc(C)c(S(=O)(=O)NC2CC(C)(C)NC(C)(C)C2)cc1Br`, which Potency is on record?
Its Potency is inconclusive: 11.7 µM [inhibitor, single point].

Which Potency does the source give for `O=C(Nc1ccnn1C1CCN(Cc2cc3ccccc3[nH]2)CC1)C1CCOC1` (stereo not drawn) here?
The Potency was active: 5.22 µM.

Which Potency does the source give for `CC(=O)NC(c1ccc(F)cc1)c1cccnc1` (stereo not drawn) here?
The Potency was inconclusive: 10.4 µM [inhibitor, partial curve, poor fit].

Which Potency does the source give for `S=C(Nc1ccccc1Cl)NC1CCC(NC(=S)Nc2ccccc2Cl)CC1` (stereo not drawn) here?
The Potency was inconclusive: 1.17 µM [inhibitor, partial curve].

For `COc1ccccc1-c1nn(Cc2ccccc2)cc1C(=O)N1CCN(c2ncccn2)CC1`, which Potency is on record?
The Potency was active: 13.1 µM.

With `Cc1ccc(NC(=O)CN2C(=O)c3ccccc3C2=O)nc1` as the compound, how does the Potency read?
Its Potency is inconclusive: 1.85 µM [inhibitor, full curve, poor fit].

Which Potency does the source give for `Cc1c(C(=O)NCc2ccccn2)oc2ccc(S(=O)(=O)N3CCOCC3)cc12` here?
The Potency was “inactive”.

For `Cc1cccc(N(C(=O)CCC(=O)Nc2cccnc2)C(C(=O)NC2CCCC2)c2ccncc2)c1` (stereo not drawn), which Potency is on record?
The Potency was active: 11.7 µM.

For `COc1cc(Br)cc(CN2CCN(C/C=C/c3ccccc3)CC2)c1O`, which Potency is on record?
Its Potency is “inactive”.

Which Potency does the source give for `CCOC(=O)CSC1=NC(=O)/C(=C\c2ccc(OC(C)=O)cc2)S1` here?
Its Potency is “inactive”.

Which Potency does the source give for `COc1ccccc1N1CCN(C(=O)COc2ccc(Cl)cc2)CC1` here?
The Potency was “inactive”.

For `Cc1cc(NC(=O)Nc2cc(Cl)sc2Cl)no1`, which Potency is on record?
The Potency was “inactive”.

For `O=C1NCCN(Cc2cccc(Oc3ccccc3)c2)C1CC(=O)N1CCCCC1` (stereo not drawn), which Potency is on record?
Its Potency is “inactive”.

For `Cc1ccc(NC(=O)c2cccnc2)cc1C`, which Potency is on record?
Its Potency is inconclusive: 18.5 µM [inhibitor, single point].

Which Potency does the source give for `CCC1CCCCN1CCCNC(=O)C1CCC(CNS(=O)(=O)c2c(C)cc(C)cc2C)CC1` (stereo not drawn) here?
The Potency was “inactive”.

For `C=CCn1cnc2c(c1=O)c1nc3ccccc3nc1n2-c1ccccc1`, which Potency is on record?
Its Potency is active: 5.86 µM.

With `Cc1cccc2cc(CN(Cc3ccco3)C(=O)NC3CCCCC3)c(=O)[nH]c12` as the compound, how does the Potency read?
The Potency was inconclusive: 11.7 µM [inhibitor, single point].

With `Cc1ccc2nc(NC(=O)CSc3nc4ccccc4o3)sc2c1` as the compound, how does the Potency read?
The Potency was inconclusive: 18.5 µM [inhibitor, single point].

Which Potency does the source give for `c1ccc(C(c2nnnn2C2CCCC2)N2CCN(c3nc4ccccc4s3)CC2)cc1` (stereo not drawn) here?
Its Potency is inconclusive: 10.4 µM [inhibitor, single point].

Which Potency does the source give for `O=C(Nc1ccccn1)c1cccc(S(=O)(=O)N2CCCc3ccccc32)c1` here?
Its Potency is active: 10.4 µM.

Which Potency does the source give for `CC(NC(=O)C1CCN(S(=O)(=O)c2ccc(Br)s2)CC1)c1ccccc1` (stereo not drawn) here?
Its Potency is “inactive”.

Which Potency does the source give for `CCCCN(C(=O)CSCC(=O)Nc1ccc(C)cc1)c1c(N)n(CCCC)c(=O)[nH]c1=O` here?
The Potency was inconclusive: 14.7 µM [inhibitor, single point].

With `Nc1n[nH]c(-c2ccccc2[N+](=O)[O-])n1` as the compound, how does the Potency read?
Its Potency is “inactive”.

For `O=C1CCC(C(=O)N2CCSCC2)CN1Cc1cccc(C(F)(F)F)c1` (stereo not drawn), which Potency is on record?
Its Potency is inconclusive: 13.1 µM [inhibitor, single point].

For `CC1CCc2nn(CC(=O)NCc3ccc(F)cc3)cc2C1` (stereo not drawn), which Potency is on record?
Its Potency is active: 9.28 µM.

Which Potency does the source give for `Cc1ccc(C(C)NC(=S)NC2CCCCC2)c(C)c1` (stereo not drawn) here?
The Potency was active: 5.22 µM.

For `CCS(=O)(=O)N1CCN(c2ccc([N+](=O)[O-])c(NCc3ccccc3)c2)CC1`, which Potency is on record?
The Potency was inconclusive: 7.38 µM [inhibitor, partial curve, poor fit].

With `CC(C)C(=O)Nc1nc2c(c(=O)[nH]1)CCCC2` as the compound, how does the Potency read?
Its Potency is “inactive”.

For `CCOC(=O)c1ccc(NC(=S)N(CCCN2CCCC2)Cc2cccs2)cc1`, which Potency is on record?
The Potency was inconclusive: 11.7 µM [inhibitor, single point].

Which Potency does the source give for `Cc1cc(NC(=O)C(C)SCC(=O)N(C)Cc2ccccc2F)no1` (stereo not drawn) here?
The Potency was inconclusive: 18.5 µM [inhibitor, single point].

Which Potency does the source give for `CCOc1ccccc1C(=O)OCC(=O)Nc1cc(Cl)ccc1Oc1ccccc1` here?
Its Potency is inconclusive: 0.465 µM [inhibitor, full curve, poor fit].

Which Potency does the source give for `O=S(=O)(c1ccccc1)N1N=C(c2cccs2)CC1c1cccc(O)c1` (stereo not drawn) here?
Its Potency is inconclusive: 4.65 µM [inhibitor, partial curve].

Which Potency does the source give for `O=c1[nH]c(=S)n(C2CC2)c(O)c1C=NCc1ccc(F)cc1` here?
Its Potency is “inactive”.

For `COCCn1c(C)cc(C(=O)COC(=O)/C=C/c2c(C)nn(C3CCS(=O)(=O)C3)c2Cl)c1C` (stereo not drawn), which Potency is on record?
Its Potency is inconclusive: 11.7 µM [inhibitor, single point].

For `CN=c1scc(C)n1/N=C/c1cc(Br)c(O)c(OC)c1`, which Potency is on record?
The Potency was “inactive”.

For `O=C(c1ccccc1F)N1CCN(c2ccc([N+](=O)[O-])c(N3CCOCC3)c2)CC1`, which Potency is on record?
The Potency was inconclusive: 10.4 µM [inhibitor, partial curve, poor fit].

With `CCN1CCN(S(=O)(=O)c2ccc(Oc3ccccc3OC)cc2)CC1` as the compound, how does the Potency read?
Its Potency is inconclusive: 14.7 µM [inhibitor, single point].

With `CN(C)/N=C/c1ccc(Sc2ccc([N+](=O)[O-])cc2[N+](=O)[O-])o1` as the compound, how does the Potency read?
Its Potency is “inactive”.

For `Cc1ccccc1OCCn1ccnc1`, which Potency is on record?
The Potency was inconclusive: 18.5 µM [inhibitor, single point].

Which Potency does the source give for `O=C(NC1CC2CCCC(C1)N2S(=O)(=O)c1ccccc1)c1ccccc1` (stereo not drawn) here?
The Potency was inconclusive: 18.5 µM [inhibitor, single point].

Which Potency does the source give for `CC1Cc2ccccc2N1S(=O)(=O)c1cnc(Cl)c(Br)c1` (stereo not drawn) here?
Its Potency is inconclusive: 18.5 µM [inhibitor, partial curve, poor fit].
